These results are taken from PubChem BioAssay.

This is one part of the list. Potency and affinity values are given separately. Where no call is shown, the source marks the result inconclusive.

A short description of assay [1]: Drosophila SCA1 whole organism dose response for polyglutamine toxicity reduction (AID 1595). The conditions noted are these: Drosophila SCA1 polyglutamine model, at 1 µM, stronger effect = higher value.
A further assay can be described thus: PubChem AID 1597. The conditions noted are these: Drosophila SCA1 polyglutamine model, at 1 µM, stronger effect = higher value.

As to `Cc1cn([C@H]2C[C@H](N=[N+]=[N-])[C@@H](CO)O2)c(=O)[nH]c1=O`, the suppression of toxicity was found to be 2.86 in assay [1] and 6.42 in the assay “PubChem AID 1597”.

With `CCOC(=O)OC(C)OC(=O)C1N2C(=O)C(NC(=O)[C@H](N)c3ccccc3)C2SC1(C)C` (some centres undefined), the suppression of toxicity in assay [1] came out at 2.86; in “PubChem AID 1597”, 0.

As for `C[C@@H]1CC2C3C[C@H](F)C4=CC(=O)C=CC4(C)C3(F)[C@@H](O)CC2(C)C1C(=O)COC(=O)C(C)(C)C` (some centres undefined), the values for the suppression of toxicity (in assay [1]; in “PubChem AID 1597”) were 4.29 and 7.14, respectively.

For the molecule `NS(=O)(=O)c1cc2c(cc1Cl)NC(C(Cl)Cl)NS2(=O)=O` (centres undefined), the suppression of toxicity was determined as 1.43 in assay [1] and 2.86 in the assay “PubChem AID 1597”.

For `NC(=O)c1ncn([C@@H]2O[C@H](CO)[C@@H](O)[C@H]2O)c1O`, the suppression of toxicity in assay [1] stood at 2.86; in “PubChem AID 1597” it was 5.71.

Take `COc1ccc(CN(CCN(C)C)c2ccccn2)cc1`: the suppression of toxicity amounted to 2.85 in assay [1] and 6.43 in the assay “PubChem AID 1597”.

As for `CC(=O)OCC(=O)[C@@]12OC(C)(C)O[C@@H]1C[C@H]1C3C[C@H](F)C4=CC(=O)C=CC4(C)[C@@]3(F)[C@@H](O)C[C@@]12C` (some centres undefined), the suppression of toxicity in assay [1] came out at 0; in “PubChem AID 1597”, 0.715.

Regarding `CCCCC(=O)OC1(C(=O)CO)C(C)CC2C3CCC4=CC(=O)C=CC4(C)[C@@]3(F)[C@@H](O)CC21C` (some centres undefined), the suppression of toxicity came to 4.29 in assay [1] and 7.14 in “PubChem AID 1597”.

As for `O=C(O)CCC(=O)c1ccc(-c2ccccc2)cc1`, the suppression of toxicity in assay [1] was found to be 0; in the assay “PubChem AID 1597”, 2.85.

Consider `COc1cc(Cc2cnc(N)nc2N)cc(OC)c1OC`, for which the suppression of toxicity in assay [1] came to 1.43; in the assay “PubChem AID 1597”, 2.15.

As to `COc1ccc(CCC(=O)c2c(O)cc(O[C@@H]3O[C@H](CO)C(O)[C@H](O)C3O[C@@H]3O[C@@H](C)[C@H](O)[C@@H](O)[C@H]3O)cc2O)cc1O` (some centres undefined), the suppression of toxicity (in assay [1]; in the assay “PubChem AID 1597”) was 5.71 throughout.

Regarding `CN(C)c1ccc(C(=C2C=CC(=[N+](C)C)C=C2)c2ccc(N(C)C)cc2)cc1`, the figures for the suppression of toxicity (in assay [1]; in the assay “PubChem AID 1597”) were 1.43 and 9.29, respectively.

Turning to `N=c1nc(N2CCCCC2)cc(N)n1O`, the suppression of toxicity in assay [1] amounted to 14.3; in the assay “PubChem AID 1597”, 15.

As to `CCCCCCCCCCCCCCCCCCOCC(O)CO` (centres undefined), the suppression of toxicity (in assay [1]; in “PubChem AID 1597”) was 0 throughout.

On to `NCCCC[C@H](N[C@@H](CCc1ccccc1)C(=O)O)C(=O)N1CCC[C@H]1C(=O)O`, for which the suppression of toxicity (in assay [1]; in “PubChem AID 1597”) was 0 in each case.

On to `CC(=O)Oc1ccccc1C(=O)O`, for which the values for the suppression of toxicity (in assay [1]; in “PubChem AID 1597”) were 7.14 and 3.57, respectively.

On to `NNc1nncc2ccccc12`, for which the suppression of toxicity in assay [1] is 1.43; in “PubChem AID 1597” it was 2.15.

For the molecule `C[N+]12CCC(CC1)C(OC(=O)C(O)(c1ccccc1)c1ccccc1)C2` (centres undefined), the suppression of toxicity turned out to be 1.43 in assay [1] and 5 in the assay “PubChem AID 1597”.

On to `CC1Cc2ccccc2N1NC(=O)c1ccc(Cl)c(S(N)(=O)=O)c1` (centres undefined), for which the suppression of toxicity in assay [1] was 0; in the assay “PubChem AID 1597”, 0.715.

As for `CSCCC(N)C(=O)NC(CC(C)C)C(=O)NC(Cc1ccccc1)C(=O)O` (centres undefined), the figures for the suppression of toxicity (in assay [1]; in the assay “PubChem AID 1597”) were 1.43 and 5, respectively.

Regarding `CN1C(=O)CC[C@H]1c1cccnc1`, the suppression of toxicity (in assay [1]; in “PubChem AID 1597”) was 0 each time.

In the case of `COC1=C2C[C@@H](C)C[C@H](OC)[C@H](O)[C@@H](C)/C=C(\C)[C@@H](OC(N)=O)[C@H](OC)/C=C\C=C(/C)C(=O)NC(=CC1=O)C2=O`, the suppression of toxicity in assay [1] was determined as 0; in “PubChem AID 1597”, 2.86.

Take `CN[C@@H]1[C@H](OC2[C@H](O[C@H]3[C@H](O)[C@@H](O)[C@H](N=C(N)N)[C@@H](O)[C@@H]3N=C(N)N)O[C@@H](C)[C@]2(O)C=O)O[C@@H](CO)[C@H](O)[C@H]1O` (some centres undefined): the suppression of toxicity in assay [1] came out at 2.85; in “PubChem AID 1597”, 2.86.

On to `CC[N+](C)(C)c1cccc(O)c1`, for which the suppression of toxicity in assay [1] came out at 1.43; in “PubChem AID 1597”, 14.3.

Turning to `CC(=O)O[C@H]1C[C@@]2(C)[C@@H](C[C@@H](O)C3[C@]2(C)CC[C@H]2[C@H](C)[C@H](O)CC[C@]32C)/C1=C(/CCC=C(C)C)C(=O)O` (some centres undefined), the suppression of toxicity came out at 4.29 in assay [1] and 7.14 in “PubChem AID 1597”.

Take `CCOc1ccccc1OCC1CNCCO1` (centres undefined): the suppression of toxicity in assay [1] was determined as 0; in “PubChem AID 1597”, 0.715.

Regarding `O=C(O)CCCCC1SCC2NC(=O)NC21` (centres undefined), the suppression of toxicity in assay [1] is 4.29; in the assay “PubChem AID 1597”, 7.86.

For the molecule `COC1=CC(=O)C[C@@H](C)[C@]12Oc1c(Cl)c(OC)cc(OC)c1C2=O`, the suppression of toxicity in assay [1] turned out to be 7.14; in “PubChem AID 1597”, 6.42.

On to `Cc1c(NC(C)C)c(=O)n(-c2ccccc2)n1C`, for which the suppression of toxicity was 12.9 in assay [1] and 10.7 in “PubChem AID 1597”.

Turning to `CCCC(C(=O)OCCN(CC)CC)(c1ccccc1)c1ccccc1`, the results for the suppression of toxicity (in assay [1]; in “PubChem AID 1597”) were 0 and 2.15, respectively.

As for `CS(=O)(=O)c1ccc([C@@H](O)[C@@H](CO)NC(=O)C(Cl)Cl)cc1`, the suppression of toxicity worked out at 1.43 in assay [1] and 2.15 in “PubChem AID 1597”.

Take `C1CNCCN1`: the figures for the suppression of toxicity (in assay [1]; in “PubChem AID 1597”) were 4.29 and 15, respectively.

As to `OCc1cc2c(cn1)[nH]c1ccccc12`, the suppression of toxicity in assay [1] stood at 1.43; in “PubChem AID 1597” it was 2.86.

For the molecule `CCn1cc(C(=O)O)c(=O)c2ccc(C)nc21`, the suppression of toxicity in assay [1] turned out to be 2.9; in “PubChem AID 1597”, 7.29.

As for `CCCCC1(COC(=O)CCC(=O)O)C(=O)N(c2ccccc2)N(c2ccccc2)C1=O`, the results for the suppression of toxicity (in assay [1]; in the assay “PubChem AID 1597”) were 8.57 and 20.7, respectively.

As for `CC(=O)N[C@@H](Cc1c[nH]c2ccccc12)C(=O)O`, the suppression of toxicity in assay [1] turned out to be 1.43; in “PubChem AID 1597”, 3.58.

For the molecule `O=C(Cn1ccnc1[N+](=O)[O-])NCCO`, the suppression of toxicity in assay [1] was determined as 7.14; in the assay “PubChem AID 1597”, 12.1.

For `CCCn1c(=O)c2[nH]c(C3CCCC3)nc2n(CCC)c1=O`, the figures for the suppression of toxicity (in assay [1]; in “PubChem AID 1597”) were 1.43 and 6.43, respectively.

`CN1CCC(OC(c2ccccc2)c2ccccc2)CC1`: the suppression of toxicity in assay [1] was 0; in “PubChem AID 1597”, 3.58.

In the case of `NC(N)=N/N=C\c1c(Cl)cccc1Cl`, the suppression of toxicity was found to be 2.85 in assay [1] and 5 in “PubChem AID 1597”.

For `CC(=O)CCCCn1c(=O)c2c(ncn2C)n(C)c1=O`, the suppression of toxicity came to 1.43 in assay [1] and 19.3 in the assay “PubChem AID 1597”.

Turning to `CC1CCC2(OC1)OC1CC3C4CC[C@H]5C[C@@H](O)CC[C@]5(C)C4CC(=O)[C@]3(C)C1C2C` (some centres undefined), the values for the suppression of toxicity (in assay [1]; in the assay “PubChem AID 1597”) were 0 and 2.85, respectively.

On to `CC(=O)[C@H]1CCC2C3CCC4=CC(=O)CC[C@]4(C)C3CC[C@@]21C` (some centres undefined), for which the suppression of toxicity was found to be 4.29 in assay [1] and 3.57 in “PubChem AID 1597”.

Turning to `NC(N)=NCCCCN=C(N)N`, the results for the suppression of toxicity (in assay [1]; in “PubChem AID 1597”) were 4.29 and 9.29, respectively.

Consider `NC(=O)c1ccccc1O`, for which the suppression of toxicity (in assay [1]; in “PubChem AID 1597”) was 2.85 in each case.

Take `CC(C(=O)O)c1ccc(C(=O)c2cccs2)cc1` (centres undefined): the suppression of toxicity in assay [1] is 5.71; in “PubChem AID 1597”, 4.29.

As to `O=C(O)c1cccnc1C(=O)O`, the suppression of toxicity is 2.85 in assay [1] and 5.71 in “PubChem AID 1597”.
